# Laboratory results as given in PubChem BioAssay AID1487 (National Center for Advancing Translational Sciences (NCATS), 2009).
# Screen size: about 200,000 compounds; about 25 (0.01%) were called active. This list was built around the results that the source calls inconclusive (neither active nor inactive); the mix of calls is not that of the screen. The call rests on the fitted dose curve; in most records, active means well fitted inhibition curve with a large enough effect in the signal ratio, with a control signal flat (not every such curve was filed as active); inconclusive means small, poorly fitted or top-dose-only effect, or effect the other way, or a change in a side signal; inactive means flat fitted curve, though single readings scatter; the % refers to the signal ratio. A potency beside an inconclusive call is a rough fit, not a confirmed value.
# Assay: qHTS Assay for Modulators of Lamin A Splicing
# Conditions: HeLa LMNA splicing GFP/RFP minigene ratio, 48 h; ratio change, negative = inhibition: at 46.1 µM (top of the series) unless noted
# Outline: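 Read-out is the ratio of GFP to DsRed2 object intensity, acquired by 488 nm laser-scanning cytometry on HeLa lamin A-EGFP minigene reporter cells. Compound incubation 48 hrs at 37 °C in Opti-MEM with 2% FBS; DMSO 0.5% final.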
# On the % scale 0 is the no-effect control and ±100 the full control effect; potency means the concentration at half of the fitted maximal effect.
Structure (SMILES),"ratio change, negative = inhibition",Potency
CCCCOc1ccc(OCCCN2CCOCC2)cc1,inconclusive: 7.17%,
COc1cc2ccc(=O)oc2c(O)c1OCC=C(C)C,inconclusive: 6.01%,
O=C(CN(C1CCCCC1)S(=O)(=O)c1ccc(Cl)cc1)NCc1ccncc1,inconclusive: 12.8%,
CCN(CC)CCN1C2=C(C(=O)CC(C)(C)C2)C(c2cccc(F)c2)C2=C1CC(C)(C)CC2=O,inactive: -4.35% [at 9.22 µM],
Cc1cccc(CNc2cc(-c3ccoc3)ncn2)c1,inconclusive: -19.8%,
Cc1ccc(C)c(NCc2n[nH]c(=S)n2-c2ccccc2)c1,inactive: 12% [at 46 µM],
Nc1nc2nccc(-c3ccco3)n2n1,inconclusive: -11.4% [at 46 µM],
Cc1ccc(C)c(NC(=O)c2cc(=O)c3ccccc3o2)c1,inconclusive: 5.34%,
CC(=O)Nc1nc(SCC(=O)Nc2nnc(C)s2)[nH]c(=O)c1NC(=O)c1cccs1,inconclusive: 23.6% [at 46 µM],
COc1ccccc1C(=O)N=C1NC(=O)CC2C(=O)NCCN12 (centres undefined),inconclusive: 4.98% [at 46 µM],
COc1ccc(Nc2cc(C)c3cc(NC(=O)Cc4ccc(Cl)cc4)ccc3n2)cc1,inactive: -11.6% [at 46 µM],
O=C(N/N=C\c1cccc(Cl)c1)c1ccc(Cn2cccn2)o1,inconclusive: 3.65%,
Cc1ccc(C(=O)/C=C/N(C)C)o1,inconclusive: 5.67% [at 46 µM],
Cc1cccc(CNC(=O)c2ccc3oc(=O)n(Cc4ccccc4)c3c2)c1,inactive: -2.91% [at 46 µM],
CCn1c(SCC(=O)c2ccc(Br)cc2)nnc1C(C)NC(=O)Cc1ccc(OC)cc1 (centres undefined),inactive: 8.43%,
Cc1nc2c(OCc3ccccc3)cccn2c1CC#N,inconclusive: -1.68%,
COc1ccc(OC)c(NC(=O)c2cc(C3CC3)nc3c2c(C)nn3-c2ccc(C)cc2)c1,inactive: 6.65% [at 46 µM],
Cc1ccc(NC(=O)CN(C)CC(=O)Nc2cccc(F)c2)cc1[N+](=O)[O-],inconclusive: 17.6% [at 46 µM],
O=C(CSc1nc2c([nH]c3ccccc32)c(=O)n1-c1cccc(C(F)(F)F)c1)N1CCc2ccccc21,,"inconclusive: 17.8 µM [cytotoxic, single point]"
CC(NC(=O)CCn1c(=S)[nH]c2ccsc2c1=O)c1ccccc1 (centres undefined),,"inconclusive: 35.5 µM [rising, single point]"
O=C(N/N=C/c1c[nH]c2ccccc12)C1CC1(c1ccccc1)c1ccccc1 (centres undefined),inconclusive: -22.7%,
CC(C)(Oc1ccc(Cl)cc1)C(=O)NCCN1C(=O)S/C(=C/c2cccnc2)C1=O,inconclusive: -4.1%,
O=C(Cc1ccc(Cl)c(Cl)c1)OCC(=O)c1ccc[nH]1,inconclusive: 18.5%,
COC(=O)c1ccc(CS(=O)(=O)c2ccccc2C)o1,inactive: 4.74%,
COc1ccc(-c2cc(C(=O)Nc3cc(C)nn3-c3ccccc3)no2)cc1,inactive: -6.24%,
CCOC(=O)c1ccc(NC(=O)CNC(=O)C2CCCCC2)cc1,inconclusive: 10.1%,
Cc1nn(S(=O)(=O)c2ccc(C(C)(C)C)cc2)c(C)c1S(=O)(=O)N1CCC(C)CC1,inactive: 21.5% [at 46 µM],

# Record cards, as listed above:
# `CCOC(=O)c1ccc(NC(=O)CNC(=O)C2CCCCC2)cc1` is entered as ratio change, negative = inhibition: inconclusive: 10.1%
# `CC(C)(Oc1ccc(Cl)cc1)C(=O)NCCN1C(=O)S/C(=C/c2cccnc2)C1=O` is entered as ratio change, negative = inhibition: inconclusive: -4.1%
# `Cc1ccc(C(=O)/C=C/N(C)C)o1` is entered as ratio change, negative = inhibition: inconclusive: 5.67% [at 46 µM]

# (further entries)

Structure (SMILES),"ratio change, negative = inhibition",Potency
Cc1ccc(S(=O)(=O)NNc2nc3ccccc3nc2C(F)(F)F)cc1,inactive: 6.65%,
CCn1c2ccccc2c2cc(NC(=S)N3CCOCC3)ccc21,inconclusive: -15.5%,
CC(C)N(Cc1ccccc1)C(=O)C1CCCN(c2ncnc3onc(-c4ccc(F)cc4)c23)C1 (centres undefined),inconclusive: -36% [at 46 µM],
N#CCCn1cc(C(=O)O)c(-c2cc3ccccc3o2)n1,inactive: 6.71%,
CC(C)(C)NC(=O)CN(C(=O)c1csnn1)c1ccccc1-c1ccccc1,inconclusive: 32.8% [at 46 µM],
CN(CC(=O)N1CCCc2c1c(=O)oc1ccc(O)cc21)Cc1ccccc1,inactive: -1.97%,
CCCCn1cc(S(=O)(=O)c2ccc(C)c(C)c2)c(=O)c2cc(F)c(N(CC)CC)cc21,inactive: 0.194% [at 46 µM],
CCC(=O)N1CCc2cc(CNC(=O)Cc3ccc(F)cc3)ccc21,inconclusive: 13.5% [at 46 µM],
O=C(CSc1ncn(-c2ccccc2)n1)Nc1nc2ccccc2s1,inactive: 6.82%,
CC1=C(C(=O)OC2CCCCC2)C(c2ccco2)C2=C(CC(C)(C)CC2=O)N1 (centres undefined),inactive: 13.6%,
Cc1ccc(OCCNC(=O)c2cc(C(=O)NCCOc3ccc(C)cc3)cc([N+](=O)[O-])c2)cc1,,"inconclusive: 35.5 µM [fluorescent, single point]"
COc1c(Br)cc2c(C)c(C(=O)O)oc2c1Br,inconclusive: 3.23%,
OC(CON=C1c2ccccc2-c2ccccc21)CN1CCNCC1 (centres undefined),,"inconclusive: 31.6 µM [falling, single point]"
CN(Cc1ccccc1)c1ncnc2c1nnn2C,inactive: 15.7% [at 46 µM],
COc1cc2c(cc1NC(=O)c1cc(-c3ccccn3)nc3ccccc13)oc1ccccc12,inactive: -3.92%,
CCOc1ccc(/C=N/NC(=O)c2ccc(Cn3cc([N+](=O)[O-])cn3)o2)cc1,inactive: 5.8%,
COc1cc(Nc2cc(C)nc3ncnn23)cc(OC)c1,inconclusive: -31.2%,
Cc1cc(C(=O)CN2C(=O)CN(C)C2=O)c(C)n1-c1cccc(S(=O)(=O)N2CCOCC2)c1,,"inconclusive: 35.5 µM [inhibitor, single point]"
CCc1cccc(C)c1NC(=S)NCCc1c(C)[nH]c2ccc(C)cc12,inconclusive: -52.3%,
CN(C)c1ccc(CN2CCCCCC2)cc1,inactive: 6.99%,
CC[n+]1c(/C=C/Nc2ccccc2)oc2ccccc21,,"inconclusive: 12.6 µM [activator, partial curve, poor fit]"
CN1CCN(c2nc(-c3cccc(C#N)c3)nc3ccccc23)CC1,inactive: -19.7%,
COc1ccc(-n2c(SCC(=O)c3ccccc3)nc3c([nH]c4ccccc43)c2=O)cc1,inactive: -18.3% [at 46 µM],
CCCCN(CC)CCNC(=O)C1CCCN(c2ncnc3onc(C)c23)C1 (centres undefined),inconclusive: -5.65% [at 46 µM],
CCC(=O)N1c2ccccc2CC1C(=O)NCc1ccc(N(C)C)cc1 (centres undefined),inconclusive: 10.7% [at 46 µM],
FC(F)(F)c1cccc(-c2nn[nH]n2)c1,inconclusive: -7.52% [at 46 µM],
CCc1ccc2c(COn3nnc4ccc(S(=O)(=O)N(C)C)cc43)cc(=O)oc2c1,inconclusive: 10.7%,
